Earlier results in patent EP3241555A1, “USE OF PYROPHOSPHATE ION ANALOGUES FOR THE TREATMENT OF HPV INFECTION” (Agencia Pública Empresarial Sanitaria Costa Del Sol, priority 2014, dated 2016).
Some of these results come from one statement about several compounds together. At least one structure is not confirmed: it was looked up by name or label, or the drawing left a doubt.

By UniProt entry, the sequences of proteins in these tests, tags left out. Where a name states a change or a piece, a line headed by the entry shows the natural chain unless it says otherwise.
UniProt P04293: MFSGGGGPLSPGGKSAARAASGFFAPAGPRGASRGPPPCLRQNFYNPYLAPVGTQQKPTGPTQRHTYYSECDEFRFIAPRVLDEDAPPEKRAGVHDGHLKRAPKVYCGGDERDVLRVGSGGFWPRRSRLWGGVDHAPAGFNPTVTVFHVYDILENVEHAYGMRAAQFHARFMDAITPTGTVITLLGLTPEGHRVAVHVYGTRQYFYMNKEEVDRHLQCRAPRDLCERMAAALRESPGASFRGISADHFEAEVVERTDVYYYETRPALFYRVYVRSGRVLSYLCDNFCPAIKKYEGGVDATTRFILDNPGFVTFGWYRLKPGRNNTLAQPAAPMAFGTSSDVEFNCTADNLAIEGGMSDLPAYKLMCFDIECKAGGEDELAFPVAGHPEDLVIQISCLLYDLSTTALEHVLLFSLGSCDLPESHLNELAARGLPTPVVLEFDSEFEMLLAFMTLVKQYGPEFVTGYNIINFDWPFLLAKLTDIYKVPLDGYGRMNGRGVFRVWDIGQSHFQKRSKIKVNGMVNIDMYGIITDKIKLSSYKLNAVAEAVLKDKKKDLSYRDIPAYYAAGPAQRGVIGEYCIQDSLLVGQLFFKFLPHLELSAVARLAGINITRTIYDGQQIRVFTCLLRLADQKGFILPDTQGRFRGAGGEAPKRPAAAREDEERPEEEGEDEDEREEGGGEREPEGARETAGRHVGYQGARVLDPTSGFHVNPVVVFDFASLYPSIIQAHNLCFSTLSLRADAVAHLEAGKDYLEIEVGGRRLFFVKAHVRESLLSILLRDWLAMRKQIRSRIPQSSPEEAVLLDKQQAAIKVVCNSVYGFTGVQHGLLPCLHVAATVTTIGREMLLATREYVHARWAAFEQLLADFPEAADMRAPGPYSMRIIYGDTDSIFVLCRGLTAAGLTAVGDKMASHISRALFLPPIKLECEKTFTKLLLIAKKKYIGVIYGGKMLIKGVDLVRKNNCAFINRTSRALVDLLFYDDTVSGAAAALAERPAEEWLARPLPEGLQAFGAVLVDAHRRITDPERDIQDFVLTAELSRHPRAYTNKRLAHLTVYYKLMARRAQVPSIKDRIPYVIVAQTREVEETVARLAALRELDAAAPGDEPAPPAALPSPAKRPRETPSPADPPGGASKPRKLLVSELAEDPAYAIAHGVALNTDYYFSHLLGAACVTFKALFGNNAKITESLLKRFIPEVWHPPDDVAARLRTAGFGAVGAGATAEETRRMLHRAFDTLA

molecular target: DNA polymerase activity of HSV-1 (Human herpesvirus 1, UniProt P04293); settings: cited from earlier work

| Molecule | inhibit the DNA polymerase activity of HSV-1 |
| --- | --- |
| methanolhydroxy-diphosphonate | inhibit |
| O=C(O)CP(=O)(O)O [phosphonoacetate] | strong inhibitors |
| CC(C(=O)O)P(=O)(O)O (centres unmarked) [2-phosphonopropionate] | inhibit |
| 2-phenylphosphonoacetate | inhibit |
| O=C(O)P(=O)(O)O [foscarnet, phosphonoformic acid] | strong inhibitors |
